Consider two molecules from PMC10943085.

Amino acid sequences for entries named in this document (tags omitted).
UniProt Q9C0B7: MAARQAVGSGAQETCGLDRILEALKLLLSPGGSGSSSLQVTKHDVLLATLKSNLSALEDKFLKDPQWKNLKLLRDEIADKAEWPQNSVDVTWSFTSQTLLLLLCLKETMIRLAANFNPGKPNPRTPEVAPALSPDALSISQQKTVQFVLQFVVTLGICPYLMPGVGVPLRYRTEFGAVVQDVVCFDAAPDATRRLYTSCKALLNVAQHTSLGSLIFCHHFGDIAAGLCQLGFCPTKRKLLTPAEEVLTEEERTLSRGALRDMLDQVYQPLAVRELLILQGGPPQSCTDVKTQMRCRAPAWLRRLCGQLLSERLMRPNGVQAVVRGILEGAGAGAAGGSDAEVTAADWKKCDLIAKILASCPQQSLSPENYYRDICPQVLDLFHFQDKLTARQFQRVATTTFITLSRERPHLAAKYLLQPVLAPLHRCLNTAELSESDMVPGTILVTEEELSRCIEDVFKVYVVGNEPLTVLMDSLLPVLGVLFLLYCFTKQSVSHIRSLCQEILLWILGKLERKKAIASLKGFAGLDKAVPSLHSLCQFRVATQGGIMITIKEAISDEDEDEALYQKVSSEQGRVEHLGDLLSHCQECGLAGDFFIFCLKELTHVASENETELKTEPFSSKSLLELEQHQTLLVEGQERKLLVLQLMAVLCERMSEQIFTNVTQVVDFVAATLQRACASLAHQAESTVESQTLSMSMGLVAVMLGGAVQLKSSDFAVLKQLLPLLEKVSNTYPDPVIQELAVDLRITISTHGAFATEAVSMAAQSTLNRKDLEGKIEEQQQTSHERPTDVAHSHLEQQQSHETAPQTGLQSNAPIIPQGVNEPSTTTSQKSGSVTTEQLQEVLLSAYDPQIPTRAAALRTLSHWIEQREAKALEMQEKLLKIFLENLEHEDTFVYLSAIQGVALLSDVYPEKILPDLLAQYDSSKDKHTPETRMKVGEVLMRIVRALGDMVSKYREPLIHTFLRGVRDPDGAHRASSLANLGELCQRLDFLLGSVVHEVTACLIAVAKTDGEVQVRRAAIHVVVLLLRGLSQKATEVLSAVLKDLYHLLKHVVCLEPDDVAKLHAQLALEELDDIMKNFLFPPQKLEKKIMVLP
UniProt P57678: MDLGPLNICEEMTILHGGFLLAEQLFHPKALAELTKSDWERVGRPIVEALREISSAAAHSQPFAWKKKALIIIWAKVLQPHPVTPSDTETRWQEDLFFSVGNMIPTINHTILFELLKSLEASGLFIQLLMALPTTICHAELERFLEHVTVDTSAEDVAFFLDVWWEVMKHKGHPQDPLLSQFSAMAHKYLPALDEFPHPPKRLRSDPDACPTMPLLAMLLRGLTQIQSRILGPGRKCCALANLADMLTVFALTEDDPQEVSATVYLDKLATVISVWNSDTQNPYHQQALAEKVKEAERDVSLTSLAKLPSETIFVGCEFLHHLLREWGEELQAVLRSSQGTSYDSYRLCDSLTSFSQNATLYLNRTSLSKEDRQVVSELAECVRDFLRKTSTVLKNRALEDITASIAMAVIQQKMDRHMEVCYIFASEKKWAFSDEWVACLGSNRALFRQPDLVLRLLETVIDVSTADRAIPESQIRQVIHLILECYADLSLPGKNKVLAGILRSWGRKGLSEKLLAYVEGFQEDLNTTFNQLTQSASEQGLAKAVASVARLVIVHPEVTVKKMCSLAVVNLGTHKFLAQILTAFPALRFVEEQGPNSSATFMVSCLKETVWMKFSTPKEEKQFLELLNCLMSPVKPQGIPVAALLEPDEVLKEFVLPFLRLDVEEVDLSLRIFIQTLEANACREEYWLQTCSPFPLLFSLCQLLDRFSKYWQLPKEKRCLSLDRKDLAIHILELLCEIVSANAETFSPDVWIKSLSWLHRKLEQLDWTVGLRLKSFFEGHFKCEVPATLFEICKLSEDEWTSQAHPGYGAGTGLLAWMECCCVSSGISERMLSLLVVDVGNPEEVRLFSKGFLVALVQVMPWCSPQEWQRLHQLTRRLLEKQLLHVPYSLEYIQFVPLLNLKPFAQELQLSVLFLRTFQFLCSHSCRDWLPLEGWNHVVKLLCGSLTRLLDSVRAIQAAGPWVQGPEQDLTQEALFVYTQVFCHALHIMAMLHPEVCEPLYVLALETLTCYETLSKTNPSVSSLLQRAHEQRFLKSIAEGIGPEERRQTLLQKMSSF

The target in this test is endogenous TANGO6 (human (endogenous in U251)) (UniProt Q9C0B7). The experiment in a line: affinity purification with mass spectrometry; endogenous TANGO6 pulled down from U251 cells with TANGO6 cross-linked beads; on-bead trypsin; Orbitrap Fusion; n = 1.

No constants are given. Whether binding was seen depends on the method and setting. In cells and extracts the contact can be indirect. A yes stands for co-enrichment or nearness to the bait. Other partners may have been found.

For GEMIN4 (from UniProt P57678 1-1058), the binding result is listed as “binds”.

B1: OAT (protein, UniProt P04181 26-439)
chain: TSVATKKTVQGPPTSDDIFEREYKYGAHNYHPLPVALERGKGIYLWDVEGRKYFDFLSSYSAVNQGHCHPKIVNALKSQVDKLTLTSRAFYNNVLGEYEEYITKLFNYHKVLPMNTGVEAGETACKLARKWGYTVKGIQKYKAKIVFAAGNFWGRTLSAISSSTDPTSYDGFGPFMPGFDIIPYNDLPALERALQDPNVAAFMVEPIQGEAGVVVPDPGYLMGVRELCTRHQVLFIADEIQTGLARTGRWLAVDYENVRPDIVLLGKALSGGLYPVSAVLCDDDIMLTIKPGEHGSTYGGNPLGCRVAIAALEVLEEENLAENADKLGIILRNELMKLPSDVVTAVRGKGLLNAIVIKETKDWDAWKVCLRLRDNGLLAKPTHGDIIRFAPPLVIKEDELRESIEIINKTILSF
On to B1, for which the binding result is reported as “binds”.
